Measured data: PubChem BioAssay AID504786 (Drosophila RNAi Screening Center, 2011)
In all, the deposit lists about 21,000 reagents; below is a random part of those that have a named target and a result. 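Primary screen; positive scores mean lost reporter signal, so the sign may be inverted from the usual convention.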 Names joined by + are all predicted targets of the reagent. Further read-outs or replicates are left out here.

Purpose: 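Knock-downs reducing HIF reporter induction by the iron chelator DFO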 (primary screen)
Cells: Drosophila S2 cells with a stable HIF luciferase reporter
Knock-down reagent: long dsRNA against Drosophila genes, about 0.2 µg dsRNA per well of a 384-well plate
Timing: three days of knock-down, then 20 h of DFO before reading
Conditions: desferrioxamine (DFO) at 100 µM, an iron chelator that mimics hypoxia, for 20 h
Detection: 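Firefly luciferase driven by the mouse ldh-a hypoxia-response element, measured after 20 h of 100 µM DFO; z-scores per plate, higher means more signal lost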
Reading the numbers: z-score: higher = stronger loss of HIF reporter signal

z-score, replicate 1, by gene and reagent
CG4424 (GeneID 42390): DRSC15576 -0.2
CRIF (GeneID 40395): DRSC11811 1.1
Calr (GeneID 41166): DRSC16614 -0.3
Ptpa (GeneID 33555): DRSC00776 -0.3
CG32720 (GeneID 318170): DRSC17529 -0.4
Eaat1 (GeneID 34251): DRSC03321 -0.3
CG6900 (retired record) (GeneID 32868): DRSC20018 -0.2
Oscillin (GeneID 33783): DRSC03001 -0.2
CG2616 (GeneID 40915): DRSC15440 -0.4
Ras64B (GeneID 38494): DRSC08689 -0.4
Achl (GeneID 36605): DRSC06665 -0.2
CG13700 (GeneID 40013): DRSC10049 -0.2
Agpat3 (GeneID 39820): DRSC10445 -0.3
lilli (GeneID 33496): DRSC00708 1
CG10481 (GeneID 35273): DRSC02063 -0.4
CG3061 (GeneID 41707): DRSC15460 -0.3
NimC1 (GeneID 34816): DRSC01879 -0.4
Tlk (GeneID 318206): DRSC17731 -0.5; DRSC17835 2.4
Abd-B (GeneID 47763): DRSC14098 0.1; DRSC14337 -0.7
CG15522 (GeneID 43546): DRSC15059 0
Wdr62 (GeneID 33367): DRSC00081 0.1; DRSC00082 0.1; DRSC00701 -0.3
Sidpn (GeneID 35168): DRSC02056 -0.3
CtsL2 (GeneID 36531): DRSC06978 -0.3
CG33640 (GeneID 3772680): DRSC01324 -0.1
Vha14-1 (GeneID 36731): DRSC07571 0.2
Jig (GeneID 41762): DRSC14974 -0.4
CG31815 (GeneID 318959): DRSC01548 -0.5
IPIP (GeneID 33849): DRSC02164 -0.4
Fbxo42 (GeneID 37532): DRSC04529 -0.3
CG10730 (GeneID 35291): DRSC02102 -0.3
rg (GeneID 44531): DRSC17377 -0.1; DRSC17726 -0.1; DRSC18049 -0.3
Or85b (GeneID 41007): DRSC16765 -0.2
Ldaf1 (GeneID 326240): DRSC17963 -0.2
yellow-e2 (GeneID 41652): DRSC15169 0
Alms1b + Alms1a: DRSC18559 -0.1
Tet (GeneID 38347): DRSC08550 -0.2
beat-Ic (GeneID 34945): DRSC01524 -0.3; DRSC03491 -0.5
EMC10 (GeneID 40396): DRSC11850 -0.3
sp3 (GeneID 42545): DRSC16354 0.3
CG18404 (GeneID 43603): DRSC15323 -0.5
Osi21 (GeneID 34566): DRSC02408 -0.3
Tsp39D (GeneID 35405): DRSC03099 -0.2
CG31827 + CG18478: DRSC01958 -0.3
CG14537 (GeneID 34072): DRSC02395 -0.3
CG34169 (GeneID 5740400): DRSC01579 0.1
wwk (GeneID 34886): DRSC01941 -0.3
SIFa (GeneID 3346202): DRSC04480 -0.1
CG12374 (GeneID 36410): DRSC06143 -0.3
c11.1 (GeneID 53436): DRSC18749 -0.4
CG4615 (GeneID 31656): DRSC17491 -0.3; DRSC18376 1.7
Hou (GeneID 32852): DRSC20001 -0.3
Krn (GeneID 326198): DRSC11202 0.4
IntS6 (GeneID 31496): DRSC18281 0.7
AP-2mu (GeneID 42642): DRSC14090 -0.4
Drep1 (GeneID 36290): DRSC07527 -0.5
eIF3e (GeneID 39877): DRSC11199 6.4
Kdm2 (GeneID 41090): DRSC14286 -0.4
CG18789 (GeneID 317813): DRSC02696 -0.2
CG42445 (GeneID 8674111): DRSC10858 -0.3
CG33757 (GeneID 3772602): DRSC05159 -0.2
Irbp18 (GeneID 39243): DRSC10612 1.2
CG14014 (GeneID 33784): DRSC02345 -0.2
CG8607 (GeneID 38805): DRSC11012 -0.3
Eig71Ee (GeneID 39706): DRSC11152 -0.1
CG9518 (GeneID 32416): DRSC20194 -0.2
CG10222 (GeneID 39504): DRSC09714 -0.1
CG13625 (GeneID 42931): DRSC14627 0
Kap3 (GeneID 32071): DRSC19426 -0.3
Npc2f (GeneID 42864): DRSC15980 -0.3
CG8157 (GeneID 36700): DRSC07085 -0.4
2mit (GeneID 41616): DRSC14194 -0.1; DRSC15224 -0.1
CG10916 (GeneID 37081): DRSC06012 -0.2
qtc (GeneID 33739): DRSC02364 -0.2; DRSC02365 -0.2
dome (GeneID 32976): DRSC19583 0.8
CG11409 (GeneID 31078): DRSC18579 0.1
CG17190 (GeneID 42386): DRSC15184 0.7
PGRP-LD + Cralbp + Pmi: DRSC09743 -0.3
Proc-R (GeneID 31408): DRSC18410 -0.2
CG32119 (GeneID 317866): DRSC09248 -0.1
CG4021 (GeneID 37484): DRSC04439 -0.3
CG4733 (GeneID 42368): DRSC15634 -1.1
CG34163 (GeneID 5740407): DRSC01219 0.1
nvy (GeneID 37886): DRSC04705 -0.2
CG16815 (GeneID 34725): DRSC02521 -0.4
alc (GeneID 35931): DRSC07062 -0.4
CG10555 (GeneID 31771): DRSC17748 -0.3
CG13606 (GeneID 42873): DRSC14609 -0.4
CG13067 (GeneID 39785): DRSC09950 -0.2
CG13784 (GeneID 34003): DRSC00974 -0.4; DRSC02287 -0.1
CG8180 (GeneID 36713): DRSC07092 -0.1; DRSC07093 1.2
CG8500 (GeneID 41203): DRSC16434 -0.3
CG31510 (GeneID 326146): DRSC14182 0.1
Fit2 (GeneID 39907): DRSC10908 -0.3
TwdlD (GeneID 43210): DRSC14738 -0.2

11 of these entries, reformatted.
Gene	amplicon	z-score, replicate 1
Tlk (GeneID 318206)	DRSC17731	-0.5
Tlk (GeneID 318206)	DRSC17835	2.4
Abd-B (GeneID 47763)	DRSC14098	0.1
Abd-B (GeneID 47763)	DRSC14337	-0.7
CG15522 (GeneID 43546)	DRSC15059	0
Wdr62 (GeneID 33367)	DRSC00081	0.1
Wdr62 (GeneID 33367)	DRSC00082	0.1
Wdr62 (GeneID 33367)	DRSC00701	-0.3
Sidpn (GeneID 35168)	DRSC02056	-0.3
CtsL2 (GeneID 36531)	DRSC06978	-0.3
CG33640 (GeneID 3772680)	DRSC01324	-0.1
